In PubChem BioAssay AID504834 (National Center for Advancing Translational Sciences (NCATS), 2011):
In all, about 320,000 compounds went through this assay and about 22,000 (6.9%) were called active. The shares of active, inactive and inconclusive entries below differ from those in the screen. Calls come from the whole dose curve; as a rule, active = well fitted inhibition curve with a large enough effect; inconclusive = small, poorly fitted or top-dose-only effect, or another doubt; inactive = no such curve, though single readings can be large or run the other way. Potencies beside an inconclusive call are fits to weak or partial responses and may not hold up.

Experiment: Primary qHTS for delayed death inhibitors of the malarial parasite plastid, 96 hour incubation
Settings: P. falciparum luciferase reporter growth; series mostly up to 28.7 µM; activity change, negative = inhibition: at the top concentration
Method in brief: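 P. falciparum expressing integrated firefly luciferase, in erythrocytes at 2% hematocrit, 0.05% parasitemia, incubated with compounds 96 h at 37 C, 5% CO2. Growth inhibition read as loss of luminescence; two-generation exposure targets delayed-death apicoplast inhibitors.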
% is set by controls: 0 for no effect and ±100 for the full control effect; potency is the fitted concentration of half-maximal effect.

Row | SMILES | Potency | activity change, negative = inhibition
1 | Fc1ccc(CCN2CCN=C2Nc2ccccc2)cc1 | inconclusive: 2.62 µM [inhibitor, single point] | –
2 | CCOc1ccc(NS(=O)(=O)c2ccc3[nH]c(=O)oc3c2)cc1 | inconclusive: 4.65 µM [inhibitor, partial curve, poor fit] | –
3 | COc1c2c(cc3c1OCO3)CC[N+](C)=C2 | inconclusive: 11.7 µM [inhibitor, single point] | –
4 | CC1(C)CC(=O)c2sc(NS(=O)(=O)c3ccc(F)cc3)nc2C1 | inconclusive: 18.5 µM [inhibitor, single point] | –
5 | COc1cc(C(=S)N2CCOCC2)ccc1O | inactive | –
6 | COc1ccc2nc(NC(=O)c3ccc(F)cc3)sc2c1 | inconclusive: 18.5 µM [inhibitor, single point] | –
7 | CCc1ccc(NC(=O)c2ccc(Cn3cc([N+](=O)[O-])cn3)cc2)cc1 | inconclusive: 5.22 µM [inhibitor, partial curve, poor fit] | –
8 | CN1CCN(/C=N/c2c(C#N)cnn2Cc2ccccc2)CC1 | inconclusive: 11.7 µM [inhibitor, single point] | –
9 | c1cc(Nc2ncnc3sccc23)cc(-c2nnc3n2CCCCC3)c1 | inconclusive: 10.4 µM [inhibitor, partial curve, poor fit] | –
10 | CCOC(=O)c1cc(C)n(S(=O)(=O)c2ccc(C)cc2)c1C | inconclusive: 0.0083 µM [inhibitor, full curve] | –
11 | Cc1nc2nc(C)c(CCC(=O)NC(C)c3ccc4c(c3)OCCO4)c(C)n2n1 (stereo not given) | inconclusive: 2.08 µM [inhibitor, full curve] | –
12 | CC1CC(OC(=O)CN2CCCCC2)CC(C)(C)C1 (stereo not given) | – | inactive: 8.29%
13 | CSc1nc2ccc(S(=O)(=O)N3CCOCC3)cc2s1 | inconclusive: 18.5 µM [inhibitor, single point] | –
14 | C=CCn1c(CC(=O)Nc2ccc(C)cc2C)nnc1SCC(=O)N1CCOCC1 | – | inactive: 19.1%
15 | CCOC(=O)c1cc(-c2ccccc2)sc1NC(=O)c1cc(OC)c(OC)c(OC)c1 | inconclusive: 1.65 µM [inhibitor, full curve] | –
16 | CC(=O)C1(c2ccccc2)CCN(C(=O)C2CCC(=O)N(CCc3cccc(F)c3)C2)CC1 (stereo not given) | inconclusive: 18.5 µM [inhibitor, single point] | –
17 | CCc1cc(-c2nc(N)ncc2-c2ccc(Br)cc2)c(O)cc1OC | – | inactive: 19%
18 | COc1ccccc1C1CC(c2ccc(C)cc2)Nc2ncnn21 (stereo not given) | inconclusive: 7.38 µM [inhibitor, partial curve] | –
19 | Cc1cc(=O)n2c(C(=O)Nc3ccc(C)c(C)c3)c(C(=O)Nc3ccccc3)sc2n1 | inconclusive: 7.38 µM [inhibitor, partial curve, poor fit] | –
20 | CN(Cc1ccccc1)C(=O)c1ccc(NC2=NC3CS(=O)(=O)CC3S2)cc1 (stereo not given) | – | inactive: 5.53%
21 | O=C(N/C(=C\c1ccc(Br)cc1)C(=O)N1CCOCC1)c1ccc([N+](=O)[O-])cc1 | – | inactive: 13.8%
22 | Cc1nn(-c2ccc(F)cc2)c(C)c1/C=C/C(=O)N1CCNC(=O)C1 | inconclusive: 18.5 µM [inhibitor, single point] | –
23 | Clc1ccc(-c2ccc(SCc3ccccn3)nn2)cc1 | inconclusive: 0.0329 µM [inhibitor, full curve, poor fit] | –
24 | CS(=O)(=O)c1ccccc1-c1nnc(NC(=O)C2=COCCO2)o1 | – | inactive: 8.06%

Row | SMILES | Potency | activity change, negative = inhibition
25 | COC(=O)c1ccc(NC(=O)C2CCCO2)cc1 (stereo not given) | inconclusive: 11.7 µM [inhibitor, single point] | –
26 | CCN1C(=O)[C@@H]2[C@H](C1=O)[C@@H]1C(=O)Nc3ccccc3C(=O)N1[C@@H]2c1cccc(C)c1 | – | inactive: 61.9%
27 | N#Cc1c(-c2ccccc2)ccnc1Oc1ccccc1 | – | inactive: 18.1%
28 | O=C(NC1CCSc2ccccc21)c1ccccc1Br (stereo not given) | inconclusive: 18.5 µM [inhibitor, partial curve, poor fit] | –
29 | Cc1ccc2c(CSc3nnc(C4CC4)n3N)cc(=O)oc2c1C | inconclusive: 13.1 µM [inhibitor, single point] | –
30 | Cc1sc2ncn(CC(=O)N3CCC(C(N)=O)CC3)c(=O)c2c1S(=O)(=O)N1CCOCC1 | – | inactive: -21.7%
31 | CC(NC(=O)c1cc2ccccc2o1)C(=O)O (stereo not given) | inconclusive: 18.5 µM [inhibitor, single point] | –
32 | O=C1c2ccccc2C(=O)N1c1ccc(Cc2ccncc2)cc1 | – | inactive: -2.23%
33 | CCC(Oc1ccccc1)C(=O)Nc1cc(C(F)(F)F)ccc1N1CCOCC1 (stereo not given) | active: 1.47 µM | –
34 | CC(C)OCCCN1C=C2C(=O)C(C)(OC(=O)CCc3ccccc3)C(=O)C=C2C=C1c1ccc(C#N)cc1 (stereo not given) | inconclusive: 10.4 µM [inhibitor, single point] | –
35 | CC(C)c1csc(CN2CCC(CO)(Cc3cccc(F)c3)CC2)n1 | inconclusive: 11.7 µM [inhibitor, partial curve] | –
36 | CN(c1ccccc1)c1nc(N)c([N+](=O)[O-])c(N2CCOCC2)n1 | – | inactive: 3.35%
37 | COc1cccc(NC(=O)NCCC2=CCCCC2)c1 | inconclusive: 10.4 µM [inhibitor, single point] | –
38 | Cc1ccc2c(c1)-c1c(cnn1CC(=O)Nc1ccccc1N1CCN(C)CC1)CO2 | – | inactive: -33.2%
39 | COc1cc2c(cc1OC)C(c1ccco1)CC(=O)N2 (stereo not given) | inconclusive: 18.5 µM [inhibitor, single point] | –
40 | O=C(Nc1ccc(S(=O)(=O)N2CCCC2)cc1)C1CCN(S(=O)(=O)c2ccc(F)cc2)CC1 | inconclusive: 1.47 µM [inhibitor, full curve] | –
41 | N#Cc1cc2cc3c(cc2nc1N1CCOCC1)OCO3 | inconclusive: 11.7 µM [inhibitor, single point] | –
42 | CC(C)(C)NC(=O)CSc1nnc(NC(=O)CCc2ccccc2)s1 | – | inactive: 52.7%
43 | CCOc1cc(C(=O)Nc2cc(OC)cc(OC)c2)ccc1OCC(=O)N1CCOCC1 | inconclusive: 1.04 µM [inhibitor, partial curve, poor fit] | –
44 | Cc1ccc(S(=O)(=O)CCc2nc3ccccc3s2)cc1C | – | inactive: -23.1%
45 | CCOc1cc(NC(=O)Nc2ccc(F)cc2)c(OCC)cc1NC(=O)CC | – | inactive: 3%
46 | CC(=O)/C(C#N)=C1\NC(=O)C(Cc2ccccc2Cl)S1 (stereo not given) | inconclusive: 13.1 µM [inhibitor, partial curve, poor fit] | –
47 | CCOc1ccc(-n2cnc3scc(-c4ccc(OC)c(OC)c4)c3c2=O)cc1 | active: 2.62 µM | –
48 | COc1ccccc1NS(=O)(=O)c1cc(NC(=O)c2ccc3ccccc3n2)ccc1Cl | – | inactive: 17.1%

Row | SMILES | Potency | activity change, negative = inhibition
49 | COc1ccccc1CN1CCN(C(c2ccccc2)c2ccccc2)CC1 | active: 8.28 µM | –
50 | Cc1ccc(S(=O)(=O)/C(C#N)=C/c2c(N3CC(C)OC(C)C3)nc3ccccn3c2=O)cc1 (stereo not given) | inconclusive: 0.329 µM [inhibitor, partial curve, poor fit] | –
51 | O=C(N/N=C/c1ccncc1)c1ccc(COc2cccc3cccnc23)cc1 | inconclusive: 1.65 µM [inhibitor, partial curve, poor fit] | –
52 | CN(C(=O)COC(=O)c1ccc([N+](=O)[O-])cc1Cl)C1CCCCC1 | – | inactive: 28.4%
53 | O=C(CSc1ncccn1)N1CCN(C(c2ccccc2)c2ccccc2)CC1 | inconclusive: 13.1 µM [inhibitor, partial curve, poor fit] | –
54 | Cc1ccccc1-n1c(SCC(=O)N/N=C/c2sccc2C)nc2ccccc2c1=O | inconclusive: 16.5 µM [inhibitor, partial curve, poor fit] | –
55 | COc1ccc(S(=O)(=O)NCCc2nnc3ccc(SCC(=O)Nc4cc(C)on4)nn23)cc1 | inconclusive: 4.65 µM [inhibitor, partial curve, poor fit] | –
56 | CC(=O)Nc1ccc(NC(=O)c2sc3nc4n(c(=O)c3c2C)CCCCC4)cc1 | inconclusive: 10.4 µM [inhibitor, single point] | –
57 | CCOC(=O)N/N=C/c1cccc(Cl)c1Cl | – | inactive: 8.96%
58 | O=c1c2ccccc2nc(SCc2nnc(-c3ccccc3Br)o2)n1-c1ccccc1 | inconclusive: 13.1 µM [inhibitor, single point] | –
59 | COc1cc([N+](=O)[O-])cc(/C=C2/SC(=S)N(Cc3ccccc3)C2=O)c1O | – | inactive: 9.21%
60 | CC1=C/C(=N\OC(=O)/C=C/c2ccccc2)C(C)=CC1=O | inconclusive: 13.1 µM [inhibitor, partial curve, poor fit] | –
61 | Cc1cc(C(=O)COc2ccc(C#N)cc2)c(C)n1C1CC1 | inconclusive: 9.28 µM [inhibitor, partial curve] | –
62 | Cc1onc(C(=O)Nc2ccccc2C(F)(F)F)c1[N+](=O)[O-] | – | inactive: -4.51%
63 | CCN(CC)c1ccc2cc(-c3nc4ccccc4n3C)c(=O)oc2c1 | – | inactive: 43.4%
64 | NC(=O)C1CCN(CC(=O)Nc2ccccc2Sc2ccc(Cl)cc2)CC1 | inconclusive: 18.5 µM [inhibitor, single point] | –
65 | CCc1cc(C(=O)N2CCCC(CNC(=O)c3ccc(-c4ccccc4)cc3)C2)no1 (stereo not given) | inconclusive: 16.5 µM [inhibitor, single point] | –
66 | CC(C)CN(CC(C)C)c1nnc(N)s1 | inconclusive: 11.7 µM [inhibitor, single point] | –
67 | O=C(Cc1ccccc1)NC(C(=O)O)C(O)c1ccc([N+](=O)[O-])cc1 (stereo not given) | active: 10.4 µM | –
68 | CCC1C(C#N)=C(SC)NC2=C1C(=O)CC(C)(C)C2 (stereo not given) | inconclusive: 11.7 µM [inhibitor, single point] | –
69 | COc1ccccc1NC(=S)N(Cc1ccccc1)Cc1cccnc1 | inconclusive: 13.1 µM [inhibitor, single point] | –
70 | CC(=O)Nc1sc(N/N=C/c2ccc(O)cc2)nc1-c1ccc(C)cc1 | inconclusive: 18.5 µM [inhibitor, single point] | –

Gathered by group: the compounds so far with bromine (4)
Row | SMILES | Potency | activity change, negative = inhibition
17 | CCc1cc(-c2nc(N)ncc2-c2ccc(Br)cc2)c(O)cc1OC | – | inactive: 19%
21 | O=C(N/C(=C\c1ccc(Br)cc1)C(=O)N1CCOCC1)c1ccc([N+](=O)[O-])cc1 | – | inactive: 13.8%
28 | O=C(NC1CCSc2ccccc21)c1ccccc1Br (stereo not given) | inconclusive: 18.5 µM [inhibitor, partial curve, poor fit] | –
58 | O=c1c2ccccc2nc(SCc2nnc(-c3ccccc3Br)o2)n1-c1ccccc1 | inconclusive: 13.1 µM [inhibitor, single point] | –
